Article PMC11489178
No constants are given. Whether binding was seen depends on the method and setting. Binding seen in cells or lysates may run through a third protein. Some entries that bind do so weakly or less than the wild type. For part of these data: Where a sequence is shown, tags or fusion partners need not be part of it. Each block holds one binder with its values, some of them ahead of it.

Columns and labels:
Conditions in all cases: remark: other sources report otherwise
[1] = target: HSPD1 (endogenous) (human (endogenous in MNNG/HOS)), P10809; experiment: co-IP; endogenous proteins, MNNG/HOS cells lysed in IP buffer (Beyotime); IP with anti-HSPD1 or anti-ATP5A1 antibody, normal IgG as negative control; protein A/G plus agarose beads; Western blot
[2] = target: Flag-HSPD1, P10809; experiment: co-IP; HEK-293T cells transfected with Flag-HSPD1 and HA-ATP5A1 plasmids; IP, protein A/G plus agarose beads; Western blot
[3] = target: T1, ATP5A1 (endogenous) (human (endogenous in MNNG/HOS)), P25705; experiment: co-IP; endogenous proteins, MNNG/HOS cells lysed in IP buffer (Beyotime); IP with anti-HSPD1 or anti-ATP5A1 antibody, normal IgG as negative control; protein A/G plus agarose beads; Western blot
T1 chain: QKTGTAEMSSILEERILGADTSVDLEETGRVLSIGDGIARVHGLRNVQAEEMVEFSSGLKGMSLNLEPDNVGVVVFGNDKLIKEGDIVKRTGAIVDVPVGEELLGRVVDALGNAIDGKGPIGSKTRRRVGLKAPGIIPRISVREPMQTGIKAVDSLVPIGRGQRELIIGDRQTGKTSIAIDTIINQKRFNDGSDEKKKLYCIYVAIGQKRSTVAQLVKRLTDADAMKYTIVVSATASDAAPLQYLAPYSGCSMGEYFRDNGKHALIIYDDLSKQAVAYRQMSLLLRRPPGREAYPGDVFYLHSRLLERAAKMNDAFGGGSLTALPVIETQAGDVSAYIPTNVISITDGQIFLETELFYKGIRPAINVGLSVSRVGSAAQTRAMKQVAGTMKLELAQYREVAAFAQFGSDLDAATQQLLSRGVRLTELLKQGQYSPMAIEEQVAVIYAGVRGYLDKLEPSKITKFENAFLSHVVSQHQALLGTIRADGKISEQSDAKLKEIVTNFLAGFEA

binding [1]: binds
B1: ATP5A1 (endogenous), P25705 44-553 (protein)
chain: QKTGTAEMSSILEERILGADTSVDLEETGRVLSIGDGIARVHGLRNVQAEEMVEFSSGLKGMSLNLEPDNVGVVVFGNDKLIKEGDIVKRTGAIVDVPVGEELLGRVVDALGNAIDGKGPIGSKTRRRVGLKAPGIIPRISVREPMQTGIKAVDSLVPIGRGQRELIIGDRQTGKTSIAIDTIINQKRFNDGSDEKKKLYCIYVAIGQKRSTVAQLVKRLTDADAMKYTIVVSATASDAAPLQYLAPYSGCSMGEYFRDNGKHALIIYDDLSKQAVAYRQMSLLLRRPPGREAYPGDVFYLHSRLLERAAKMNDAFGGGSLTALPVIETQAGDVSAYIPTNVISITDGQIFLETELFYKGIRPAINVGLSVSRVGSAAQTRAMKQVAGTMKLELAQYREVAAFAQFGSDLDAATQQLLSRGVRLTELLKQGQYSPMAIEEQVAVIYAGVRGYLDKLEPSKITKFENAFLSHVVSQHQALLGTIRADGKISEQSDAKLKEIVTNFLAGFEA

binding [2]: binds
B2: HA-ATP5A1, P25705 44-553 (protein)
chain: QKTGTAEMSSILEERILGADTSVDLEETGRVLSIGDGIARVHGLRNVQAEEMVEFSSGLKGMSLNLEPDNVGVVVFGNDKLIKEGDIVKRTGAIVDVPVGEELLGRVVDALGNAIDGKGPIGSKTRRRVGLKAPGIIPRISVREPMQTGIKAVDSLVPIGRGQRELIIGDRQTGKTSIAIDTIINQKRFNDGSDEKKKLYCIYVAIGQKRSTVAQLVKRLTDADAMKYTIVVSATASDAAPLQYLAPYSGCSMGEYFRDNGKHALIIYDDLSKQAVAYRQMSLLLRRPPGREAYPGDVFYLHSRLLERAAKMNDAFGGGSLTALPVIETQAGDVSAYIPTNVISITDGQIFLETELFYKGIRPAINVGLSVSRVGSAAQTRAMKQVAGTMKLELAQYREVAAFAQFGSDLDAATQQLLSRGVRLTELLKQGQYSPMAIEEQVAVIYAGVRGYLDKLEPSKITKFENAFLSHVVSQHQALLGTIRADGKISEQSDAKLKEIVTNFLAGFEA

binding [3]: binds
B3: HSPD1 (endogenous), P10809 27-573 (protein)
chain: AKDVKFGADARALMLQGVDLLADAVAVTMGPKGRTVIIEQSWGSPKVTKDGVTVAKSIDLKDKYKNIGAKLVQDVANNTNEEAGDGTTTATVLARSIAKEGFEKISKGANPVEIRRGVMLAVDAVIAELKKQSKPVTTPEEIAQVATISANGDKEIGNIISDAMKKVGRKGVITVKDGKTLNDELEIIEGMKFDRGYISPYFINTSKGQKCEFQDAYVLLSEKKISSIQSIVPALEIANAHRKPLVIIAEDVDGEALSTLVLNRLKVGLQVVAVKAPGFGDNRKNQLKDMAIATGGAVFGEEGLTLNLEDVQPHDLGKVGEVIVTKDDAMLLKGKGDKAQIEKRIQEIIEQLDVTTSEYEKEKLNERLAKLSDGVAVLKVGGTSDVEVNEKKDRVTDALNATRAAVEEGIVLGGGCALLRCIPALDSLTPANEDQKIGIEIIKRTLKIPAMTIAKNAGVEGSLIVEKIMQSSSEVGYDAMAGDFVNMVEKGIIDPTKVVRTALLDAAGVASLLTTAEVVVTEIPKEEKDPGMGAMGGMGGGMGGGMF
